# According to the supplement of paper PMC12067093, “Discovery and optimisation of a covalent ligand for TRIM25 and its application to targeted protein ubiquitination” (Chemical Science, 2025):
# Some of the results follow.
# Columns and labels:
# Assay in all cases: probe-labelled cysteine peptide fold change vs DMSO (competition) (log2 fold change); higher = less target engagement (more negative = stronger competition)
# Conditions in all cases: THP-1, incubation time: 4 h
# [1] = biological target: HIVEP3_Q5T1R4_1369_GTTVCGADVHEVGPGPSGLSEEQSR (UniProt Q5T1R4)
# [2] = biological target: HIVEP3_Q5T1R4_1756_YVCEECGIR (UniProt Q5T1R4)
# [3] = biological target: HIVEP3_Q5T1R4_324_CSLSQSSTAQSLEDPPPFVEPSSEHPLSHKPEDTHTIK (UniProt Q5T1R4)
# 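Further: competitive profiling in live THP-1 cells: cysteine peptides tagged with an iodoacetamide desthiobiotin (IA-DTB) probe, intensity after compound treatment relative to DMSO-treated cells.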
smiles,measurement,setting,value
Cc1cc(C(=O)N2CCCN(C(=O)CCl)CC2)ccc1-c1ccccc1 [compound 10],probe-labelled cysteine peptide fold change,[1]; 10 µM,-0.288
same,probe-labelled cysteine peptide fold change,[1]; 50 µM,-0.335
same,probe-labelled cysteine peptide fold change,[2]; 10 µM,0.0727
same,probe-labelled cysteine peptide fold change,[2]; 50 µM,0.154
same,probe-labelled cysteine peptide fold change,[3]; 10 µM,0.109
same,probe-labelled cysteine peptide fold change,[3]; 50 µM,-0.192
